Measurements: PMC10848721
These are yes or no findings as the source states them, for the method shown. Binding seen in cells or lysates may run through a third protein. A result given as binding can be weak or reduced; the word gives no strength.

Protein sequences, listed by entry. Tags and fused reporters are not part of them. Lines headed by an entry give the natural chain unless they say otherwise; changes in a name come on top.
UniProt Q86T03: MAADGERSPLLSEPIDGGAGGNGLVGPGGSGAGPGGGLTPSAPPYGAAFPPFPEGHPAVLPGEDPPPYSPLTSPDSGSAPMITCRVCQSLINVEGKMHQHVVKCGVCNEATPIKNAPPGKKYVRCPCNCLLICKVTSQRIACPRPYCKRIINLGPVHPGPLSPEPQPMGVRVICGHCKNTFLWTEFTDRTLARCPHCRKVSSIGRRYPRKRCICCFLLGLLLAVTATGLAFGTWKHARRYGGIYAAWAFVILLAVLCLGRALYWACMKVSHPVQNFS

Experiments:
Assay in all cases: co-IP; HaloLink Resin IP of Halo-TMEM55B (full-length, truncated or point mutants) from lysates of transiently transfected HEK293 cells, 1 to 2 hours; washed with 50 mM tris-HCl pH 7.5, 150 mM NaCl; quantitative immunoblot
TMEM55B A117S = TMEM55B A117S (UniProt Q86T03)
TMEM55B L137A = TMEM55B L137A (UniProt Q86T03)
TMEM55B V108T = TMEM55B V108T (UniProt Q86T03)

Measured: binding

B1: RILPL1 (found with overexpressed TMEM55B or TMEM55A) (protein, UniProt Q5EBL4 1-403)
chain: MEEERGSALAAESALEKNVAELTVMDVYDIASLVGHEFERVIDQHGCEAIARLMPKVVRVLEILEVLVSRHHVAPELDELRLELDRLRLERMDRIEKERKHQKELELVEDVWRGEAQDLLSQIAQLQEENKQLMTNLSHKDVNFSEEEFQKHEGMSERERQVMKKLKEVVDKQRDEIRAKDRELGLKNEDVEALQQQQTRLMKINHDLRHRVTVVEAQGKALIEQKVELEADLQTKEQEMGSLRAELGKLRERLQGEHSQNGEEEPETEPVGEESISDAEKVAMDLKDPNRPRFTLQELRDVLHERNELKSKVFLLQEELAYYKSEEMEEENRIPQPPPIAHPRTSPQPESGIKRLFSFFSRDKKRLANTQRNVHIQESFGQWANTHRDDGYTEQGQEALQHL
binds: TMEM55B A117S | TMEM55B L137A | TMEM55B V108T
